Test results as given in patent US20240317834A1, “COMPOSITIONS AND METHODS FOR NEUROLOGICAL DISEASES” (CODA BIOTHERAPEUTICS, INC., priority 2020, published 2024).

How the values were obtained:
HEK293T cells [1] = assay type: cell-based
HEK293T cells [2] = assay: Surface localization of HA-tagged engineered receptors by flow cytometry with anti-HA antibody; assay type: cell-based; conditions: normalized to SEQ ID NO: 33 control; for Normalized HA %: % HA-tag positive cells; for Normalized HA MFI: anti-HA MFI

Row | Molecule | Normalized AB % (HEK293T cells [1]) | Normalized AB MFI (HEK293T cells [1]) | Normalized HA % (HEK293T cells [2]) | Normalized HA MFI (HEK293T cells [2])
1 | CODA339: engineered chimeric LGIC receptor, L131D in SEQ ID NO: 33 (protein, synthetic sequence of chimeric LGIC) MRCSPGGVWLALAASLLHVSLQGEFQRKLYKELVKNYNPLERPVANDSQPLTVYFSLSLLQIMDVDEKNQVLTTNIWLQMSWTDHYLQWNVSEYPGVKTVRFPDGQIWKPDILLYNSADERFDATFHTNVDVNSSGHCQYLPPGIFKSSCPMDLKNFPMDVQTCKLKFGSWSYGGWSLDLQMQEADISGYIPNGEWDLVGIPGKRSERFYECCKEPYPDVTFTVTMRRRMGYYLIQMYIPSLLIVILSWISFWINMDAAPARVGLGITTVLTMTTQSSGSRASLPKVSYVKAIDIWMAVCLLFVFSALLEYAAVNFVSRQHKELLRFRRKRRHHKSPMLNLFQEDEAGEGRFNFSAYGMGPACLQAKDGISVKGANNSNTTNPPPAPSKSPEEMRKLFIQRAKKIDKISRIGFPMAFLIFNMFYWIIYKIVRREDVHNQ | 0.84 | 1.41 | 1.59 | 0.79
2 | CODA342: engineered chimeric LGIC receptor, L131R in SEQ ID NO: 33 (protein, synthetic sequence of chimeric LGIC) MRCSPGGVWLALAASLLHVSLQGEFQRKLYKELVKNYNPLERPVANDSQPLTVYFSLSLLQIMDVDEKNQVLTTNIWLQMSWTDHYLQWNVSEYPGVKTVRFPDGQIWKPDILLYNSADERFDATFHTNVRVNSSGHCQYLPPGIFKSSCPMDLKNFPMDVQTCKLKFGSWSYGGWSLDLQMQEADISGYIPNGEWDLVGIPGKRSERFYECCKEPYPDVTFTVTMRRRMGYYLIQMYIPSLLIVILSWISFWINMDAAPARVGLGITTVLTMTTQSSGSRASLPKVSYVKAIDIWMAVCLLFVFSALLEYAAVNFVSRQHKELLRFRRKRRHHKSPMLNLFQEDEAGEGRFNFSAYGMGPACLQAKDGISVKGANNSNTTNPPPAPSKSPEEMRKLFIQRAKKIDKISRIGFPMAFLIFNMFYWIIYKIVRREDVHNQ | 0.61 | 1.24 | 1.83 | 0.74
3 | CODA377: engineered chimeric LGIC receptor, S172D in SEQ ID NO: 33 (protein, synthetic sequence of chimeric LGIC) MRCSPGGVWLALAASLLHVSLQGEFQRKLYKELVKNYNPLERPVANDSQPLTVYFSLSLLQIMDVDEKNQVLTTNIWLQMSWTDHYLQWNVSEYPGVKTVRFPDGQIWKPDILLYNSADERFDATFHTNVLVNSSGHCQYLPPGIFKSSCPMDLKNFPMDVQTCKLKFGSWDYGGWSLDLQMQEADISGYIPNGEWDLVGIPGKRSERFYECCKEPYPDVTFTVTMRRRMGYYLIQMYIPSLLIVILSWISFWINMDAAPARVGLGITTVLTMTTQSSGSRASLPKVSYVKAIDIWMAVCLLFVFSALLEYAAVNFVSRQHKELLRFRRKRRHHKSPMLNLFQEDEAGEGRFNFSAYGMGPACLQAKDGISVKGANNSNTTNPPPAPSKSPEEMRKLFIQRAKKIDKISRIGFPMAFLIFNMFYWIIYKIVRREDVHNQ | 0.50 | 0.90 | 0.36 | 0.61
4 | CODA409: engineered chimeric LGIC receptor, Y210W in SEQ ID NO: 33 (protein, synthetic sequence of chimeric LGIC) MRCSPGGVWLALAASLLHVSLQGEFQRKLYKELVKNYNPLERPVANDSQPLTVYFSLSLLQIMDVDEKNQVLTTNIWLQMSWTDHYLQWNVSEYPGVKTVRFPDGQIWKPDILLYNSADERFDATFHTNVLVNSSGHCQYLPPGIFKSSCPMDLKNFPMDVQTCKLKFGSWSYGGWSLDLQMQEADISGYIPNGEWDLVGIPGKRSERFWECCKEPYPDVTFTVTMRRRMGYYLIQMYIPSLLIVILSWISFWINMDAAPARVGLGITTVLTMTTQSSGSRASLPKVSYVKAIDIWMAVCLLFVFSALLEYAAVNFVSRQHKELLRFRRKRRHHKSPMLNLFQEDEAGEGRFNFSAYGMGPACLQAKDGISVKGANNSNTTNPPPAPSKSPEEMRKLFIQRAKKIDKISRIGFPMAFLIFNMFYWIIYKIVRREDVHNQ | 0.88 | 0.62 | 0.96 | 1.09
5 | CODA534: engineered chimeric LGIC receptor, L131S, S172D in SEQ ID NO: 33 (protein, synthetic sequence of chimeric LGIC) MRCSPGGVWLALAASLLHVSLQGEFQRKLYKELVKNYNPLERPVANDSQPLTVYFSLSLLQIMDVDEKNQVLTTNIWLQMSWTDHYLQWNVSEYPGVKTVRFPDGQIWKPDILLYNSADERFDATFHTNVSVNSSGHCQYLPPGIFKSSCPMDLKNFPMDVQTCKLKFGSWDYGGWSLDLQMQEADISGYIPNGEWDLVGIPGKRSERFYECCKEPYPDVTFTVTMRRRMGYYLIQMYIPSLLIVILSWISFWINMDAAPARVGLGITTVLTMTTQSSGSRASLPKVSYVKAIDIWMAVCLLFVFSALLEYAAVNFVSRQHKELLRFRRKRRHHKSPMLNLFQEDEAGEGRFNFSAYGMGPACLQAKDGISVKGANNSNTTNPPPAPSKSPEEMRKLFIQRAKKIDKISRIGFPMAFLIFNMFYWIIYKIVRREDVHNQ | 0.44 | 0.91 | 0.47 | 1.10
6 | CODA535: engineered chimeric LGIC receptor, L131T, S172D in SEQ ID NO: 33 (protein, synthetic sequence of chimeric LGIC) MRCSPGGVWLALAASLLHVSLQGEFQRKLYKELVKNYNPLERPVANDSQPLTVYFSLSLLQIMDVDEKNQVLTTNIWLQMSWTDHYLQWNVSEYPGVKTVRFPDGQIWKPDILLYNSADERFDATFHTNVTVNSSGHCQYLPPGIFKSSCPMDLKNFPMDVQTCKLKFGSWDYGGWSLDLQMQEADISGYIPNGEWDLVGIPGKRSERFYECCKEPYPDVTFTVTMRRRMGYYLIQMYIPSLLIVILSWISFWINMDAAPARVGLGITTVLTMTTQSSGSRASLPKVSYVKAIDIWMAVCLLFVFSALLEYAAVNFVSRQHKELLRFRRKRRHHKSPMLNLFQEDEAGEGRFNFSAYGMGPACLQAKDGISVKGANNSNTTNPPPAPSKSPEEMRKLFIQRAKKIDKISRIGFPMAFLIFNMFYWIIYKIVRREDVHNQ | 0.43 | 0.72 | 0.33 | 0.86
7 | CODA536: engineered chimeric LGIC receptor, L131D, S172D in SEQ ID NO: 33 (protein, synthetic sequence of chimeric LGIC) MRCSPGGVWLALAASLLHVSLQGEFQRKLYKELVKNYNPLERPVANDSQPLTVYFSLSLLQIMDVDEKNQVLTTNIWLQMSWTDHYLQWNVSEYPGVKTVRFPDGQIWKPDILLYNSADERFDATFHTNVDVNSSGHCQYLPPGIFKSSCPMDLKNFPMDVQTCKLKFGSWDYGGWSLDLQMQEADISGYIPNGEWDLVGIPGKRSERFYECCKEPYPDVTFTVTMRRRMGYYLIQMYIPSLLIVILSWISFWINMDAAPARVGLGITTVLTMTTQSSGSRASLPKVSYVKAIDIWMAVCLLFVFSALLEYAAVNFVSRQHKELLRFRRKRRHHKSPMLNLFQEDEAGEGRFNFSAYGMGPACLQAKDGISVKGANNSNTTNPPPAPSKSPEEMRKLFIQRAKKIDKISRIGFPMAFLIFNMFYWIIYKIVRREDVHNQ | 0.48 | 0.87 | 0.40 | 0.87
8 | CODA805: engineered chimeric LGIC receptor, Y115D, S170T in SEQ ID NO: 33 (protein, synthetic sequence of chimeric LGIC) MRCSPGGVWLALAASLLHVSLQGEFQRKLYKELVKNYNPLERPVANDSQPLTVYFSLSLLQIMDVDEKNQVLTTNIWLQMSWTDHYLQWNVSEYPGVKTVRFPDGQIWKPDILLDNSADERFDATFHTNVLVNSSGHCQYLPPGIFKSSCPMDLKNFPMDVQTCKLKFGTWSYGGWSLDLQMQEADISGYIPNGEWDLVGIPGKRSERFYECCKEPYPDVTFTVTMRRRMGYYLIQMYIPSLLIVILSWISFWINMDAAPARVGLGITTVLTMTTQSSGSRASLPKVSYVKAIDIWMAVCLLFVFSALLEYAAVNFVSRQHKELLRFRRKRRHHKSPMLNLFQEDEAGEGRFNFSAYGMGPACLQAKDGISVKGANNSNTTNPPPAPSKSPEEMRKLFIQRAKKIDKISRIGFPMAFLIFNMFYWIIYKIVRREDVHNQ | 0.56 | 0.93 | 0.70 | 0.94
9 | CODA806: engineered chimeric LGIC receptor, Y115D, L131Q in SEQ ID NO: 33 (protein, synthetic sequence of chimeric LGIC) MRCSPGGVWLALAASLLHVSLQGEFQRKLYKELVKNYNPLERPVANDSQPLTVYFSLSLLQIMDVDEKNQVLTTNIWLQMSWTDHYLQWNVSEYPGVKTVRFPDGQIWKPDILLDNSADERFDATFHTNVQVNSSGHCQYLPPGIFKSSCPMDLKNFPMDVQTCKLKFGSWSYGGWSLDLQMQEADISGYIPNGEWDLVGIPGKRSERFYECCKEPYPDVTFTVTMRRRMGYYLIQMYIPSLLIVILSWISFWINMDAAPARVGLGITTVLTMTTQSSGSRASLPKVSYVKAIDIWMAVCLLFVFSALLEYAAVNFVSRQHKELLRFRRKRRHHKSPMLNLFQEDEAGEGRFNFSAYGMGPACLQAKDGISVKGANNSNTTNPPPAPSKSPEEMRKLFIQRAKKIDKISRIGFPMAFLIFNMFYWIIYKIVRREDVHNQ | 0.33 | 2.04 | 0.36 | 0.83
